Source: PMC8306909
These are yes or no findings as the source states them, for the method shown. Binding seen in cells or lysates may run through a third protein. Some binding calls cover weakened binding; strength is not graded here.

Chains of the proteins cited; added tags and fusions are not shown.
UniProt Q16875: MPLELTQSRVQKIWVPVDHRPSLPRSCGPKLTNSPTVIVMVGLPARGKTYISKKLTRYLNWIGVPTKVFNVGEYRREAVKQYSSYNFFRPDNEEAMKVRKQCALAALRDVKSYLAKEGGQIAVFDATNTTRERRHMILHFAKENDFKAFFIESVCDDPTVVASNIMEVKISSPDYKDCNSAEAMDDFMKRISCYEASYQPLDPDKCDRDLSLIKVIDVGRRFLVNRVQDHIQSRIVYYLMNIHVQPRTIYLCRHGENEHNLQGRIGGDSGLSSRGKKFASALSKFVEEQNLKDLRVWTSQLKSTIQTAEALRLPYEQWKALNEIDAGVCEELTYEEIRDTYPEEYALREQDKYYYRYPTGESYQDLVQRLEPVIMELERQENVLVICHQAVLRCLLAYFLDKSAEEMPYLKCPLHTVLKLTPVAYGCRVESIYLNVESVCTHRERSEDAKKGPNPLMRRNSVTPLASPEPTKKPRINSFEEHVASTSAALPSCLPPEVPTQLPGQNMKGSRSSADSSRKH
UniProt Q9BXW9: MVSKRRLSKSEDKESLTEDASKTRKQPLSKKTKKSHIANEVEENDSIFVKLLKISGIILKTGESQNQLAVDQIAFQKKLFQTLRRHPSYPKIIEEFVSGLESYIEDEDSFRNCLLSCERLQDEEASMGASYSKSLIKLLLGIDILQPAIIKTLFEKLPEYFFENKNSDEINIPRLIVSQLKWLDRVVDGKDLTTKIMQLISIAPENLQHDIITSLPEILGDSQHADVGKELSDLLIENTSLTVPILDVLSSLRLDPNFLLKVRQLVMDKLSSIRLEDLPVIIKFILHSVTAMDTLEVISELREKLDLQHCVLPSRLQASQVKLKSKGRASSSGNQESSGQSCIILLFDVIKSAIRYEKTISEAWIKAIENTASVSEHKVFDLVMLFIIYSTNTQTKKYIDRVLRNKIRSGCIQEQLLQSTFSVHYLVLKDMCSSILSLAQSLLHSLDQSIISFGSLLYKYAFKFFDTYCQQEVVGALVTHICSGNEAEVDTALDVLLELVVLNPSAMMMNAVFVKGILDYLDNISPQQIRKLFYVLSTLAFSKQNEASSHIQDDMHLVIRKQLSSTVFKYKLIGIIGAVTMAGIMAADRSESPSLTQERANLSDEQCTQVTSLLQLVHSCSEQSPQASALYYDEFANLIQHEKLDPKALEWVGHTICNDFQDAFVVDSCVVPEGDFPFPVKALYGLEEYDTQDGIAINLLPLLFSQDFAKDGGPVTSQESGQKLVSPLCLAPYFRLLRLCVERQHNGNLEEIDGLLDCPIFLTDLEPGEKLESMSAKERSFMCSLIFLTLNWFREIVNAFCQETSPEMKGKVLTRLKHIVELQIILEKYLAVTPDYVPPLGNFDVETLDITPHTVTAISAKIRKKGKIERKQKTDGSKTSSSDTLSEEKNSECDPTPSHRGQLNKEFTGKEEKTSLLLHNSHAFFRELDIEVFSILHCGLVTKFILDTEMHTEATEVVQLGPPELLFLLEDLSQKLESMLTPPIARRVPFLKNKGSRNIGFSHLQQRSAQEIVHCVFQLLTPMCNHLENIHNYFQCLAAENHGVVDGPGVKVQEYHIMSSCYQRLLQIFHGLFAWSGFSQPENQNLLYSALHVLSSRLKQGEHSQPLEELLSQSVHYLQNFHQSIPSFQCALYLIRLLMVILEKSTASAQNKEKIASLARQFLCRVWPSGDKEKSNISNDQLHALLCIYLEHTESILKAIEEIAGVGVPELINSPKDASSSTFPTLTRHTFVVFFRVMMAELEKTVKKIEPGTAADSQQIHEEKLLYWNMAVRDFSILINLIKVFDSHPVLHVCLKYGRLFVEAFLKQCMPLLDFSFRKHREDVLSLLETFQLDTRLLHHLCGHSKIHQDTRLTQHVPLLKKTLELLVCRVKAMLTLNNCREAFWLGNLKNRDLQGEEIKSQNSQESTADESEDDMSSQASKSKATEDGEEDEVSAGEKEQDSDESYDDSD

Target: 6-phosphofructo-2-kinase/fructose-2,6,-bisphophatase 3 (PFKFB3) (human (endogenous in U2OS)) (UniProt Q16875)
Test: co-IP; chromatin fraction of U2OS cells; immunoprecipitation with rabbit anti-PFKFB3 or rabbit anti-BLM (2 ug/sample) on Dynabeads Protein G, immunoblot; cells treated with MMC, with or without PFKFB3i or ATR inhibitor

binding: binds
Substance: FANCD2 (from UniProt Q9BXW9 1-1451)
